PMC10380515
No constants are given. Whether binding was seen depends on the method and setting. Binding seen in cells or lysates may run through a third protein. A result given as binding can be weak or reduced; the word gives no strength.

Molecular target: MIC19 (rat (endogenous in brain tissue))
Assay: co-IP; rat brain tissue lysate, sham group; MIC19 antibody (or normal rabbit IgG as negative control) with magnetic beads, 4 °C for at least 8 h; SAM50 detected by Western blot

binding: binds
B1: SAM50 (protein, UniProt Q6AXV4 1-469)
chain: MGTVHARSLEPLPSSGTDFGALGEEAEFVEVEPEAKQEILENKDVVVQHVHFDGLERTKDDIIICEIGEVFKAKNLIEVMRRSHEAREKLLRLGIFRQVDVLIDTCHGEDALPNGLDVTFEVTELRRLTGSYNTMVGNNEGSMVLGLKLPNLLGRAEKVTFQFSYGTKETSYGLSFFKPQPGNFEKNFSVNLYKVTGQFPWSSLRETDRGVSAEYSFPLCKTSHTVKWEGVWRELGCLARTASFAVRKESGHSLKSSLSHAMVIDSRNSSILPRRGALLKVNQELAGYTGGDVSFIKEDFELQLNKPLVLDSVFSTSLWGGMLVPIGDKLSSIADRFYLGGPTSVRGFSMHSIGPQSEGDYLGGEAYWAGGLHLYTPLPFRPGQGGFGELFRTHFFLNAGNLCNLNYGEGPRAHIRKLAECIRWSYGAGIVLRLGNIARLELNYCIPMGVQRGDRICDGVQFGAGIRFL
